This assay concerns the target C1q protein. In words: condition: 2-fold dilutions of antibody starting at 1 µg/mL; C1q at 4 µg/mL; ELISA: antibody captured on PD-1 HIS, C1q added.

Results are given in words; binding and its absence hold for the method and conditions named.

B1: can 2H9 IgGB ADCC (1068) VH4/VL3 (antibody)
heavy: EVQLVQSGGDLVKPGGSVRLSCVASGFNIKNTYMHWVRQAPGKGLQWIGRIAPANVDTKYAPKFQGKATISADTAKNTAYMQLNSLRAEDTAVYYCVLIYYDYDGDIDVWGQGTLVTVSSASTTAPSVFPLAPSCGSTSGSTVALACLVSGYFPEPVTVSWNSGSLTSGVHTFPSVLQSSGLYSLSSMVTVPSSRWPSETFTCNVAHPASKTKVDKPVPKRENGRVPRPPDCPKCPAPEMLGGASVFIFPPKPKDTLLIARTPEVTCVVVALDPEDPEVQISWFVDGKQMQTAKTQPREEQFAGTYRVVSVLPIGHQDWLKGKQFTCKVNNKGLASPIERTISKARGQAHQPSVYVLPPSREELSKNTVSLTCLIKDFFPPDIDVEWQSNGQQEPESKYRTTPPQLDEDGSYFLYSKLSVDKSRWQRGDTFICAVMHEALHNHYTQESLSHSPGK
light: DIVMTQTPLSLSVSLGEPASISCHASQNINVWLSWYRQKPGQIPQLLIYKASHLHTGVPDRFSGSGSGTDFTLRISRVEADDAGVYYCQQGQSWPLTFGQGTKVEIKRNDAQPAVYLFQPSPDQLHTGSASVVCLLNSFYPKDINVKWKVDGVIQDTGIQESVTEQDSKDSTYSLSSTLTMSSTEYLSHELYSCEITHKSLPSTLIKSFQRSECQRVD
notes: also called can2H9 VH4 IgGB ADCC (1068)/VL3; YZZ1068
Take B1: the binding entry is recorded as “no binding”.

For the origin of these results see patent US20190002562A1 (INTERVET, published 2019).
